Source: paper PMC9471048

Chains of the proteins cited; added tags and fusions are not shown.
UniProt P08913, whole entry: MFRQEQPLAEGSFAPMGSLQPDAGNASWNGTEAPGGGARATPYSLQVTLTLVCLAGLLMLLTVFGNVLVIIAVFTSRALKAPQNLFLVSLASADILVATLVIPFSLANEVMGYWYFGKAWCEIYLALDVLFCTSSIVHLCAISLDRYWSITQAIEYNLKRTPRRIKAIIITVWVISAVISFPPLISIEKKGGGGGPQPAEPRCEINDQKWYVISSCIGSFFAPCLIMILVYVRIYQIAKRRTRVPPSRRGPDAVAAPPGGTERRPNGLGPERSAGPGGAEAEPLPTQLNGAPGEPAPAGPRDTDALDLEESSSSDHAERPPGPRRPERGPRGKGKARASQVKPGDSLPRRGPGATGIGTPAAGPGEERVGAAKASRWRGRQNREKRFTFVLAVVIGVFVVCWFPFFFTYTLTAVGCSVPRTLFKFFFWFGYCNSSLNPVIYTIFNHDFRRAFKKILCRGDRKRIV
UniProt P07550, whole entry: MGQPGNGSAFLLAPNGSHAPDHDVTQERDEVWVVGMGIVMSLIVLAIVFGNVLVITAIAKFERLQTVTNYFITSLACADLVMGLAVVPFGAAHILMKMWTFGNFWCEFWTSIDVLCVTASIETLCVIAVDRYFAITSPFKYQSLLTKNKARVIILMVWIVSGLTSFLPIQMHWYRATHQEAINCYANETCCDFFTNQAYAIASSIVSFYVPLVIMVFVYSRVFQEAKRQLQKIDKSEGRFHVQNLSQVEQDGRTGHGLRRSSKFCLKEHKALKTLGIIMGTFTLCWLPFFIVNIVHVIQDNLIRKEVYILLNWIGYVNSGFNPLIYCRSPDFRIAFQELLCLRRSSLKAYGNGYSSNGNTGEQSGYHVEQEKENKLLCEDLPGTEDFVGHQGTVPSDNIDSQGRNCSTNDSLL
UniProt P18089, whole entry: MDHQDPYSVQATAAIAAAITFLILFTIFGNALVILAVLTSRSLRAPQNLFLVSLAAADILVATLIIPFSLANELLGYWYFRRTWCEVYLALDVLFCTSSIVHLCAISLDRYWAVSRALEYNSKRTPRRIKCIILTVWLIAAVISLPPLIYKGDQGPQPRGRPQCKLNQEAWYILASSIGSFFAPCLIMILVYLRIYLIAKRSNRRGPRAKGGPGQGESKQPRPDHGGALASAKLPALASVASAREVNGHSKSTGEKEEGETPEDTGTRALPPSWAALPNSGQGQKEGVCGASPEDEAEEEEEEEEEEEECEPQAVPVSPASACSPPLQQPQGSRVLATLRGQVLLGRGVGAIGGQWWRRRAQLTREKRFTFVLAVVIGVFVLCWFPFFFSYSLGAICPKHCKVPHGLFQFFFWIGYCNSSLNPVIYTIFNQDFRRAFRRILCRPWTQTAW
UniProt P08588, whole entry: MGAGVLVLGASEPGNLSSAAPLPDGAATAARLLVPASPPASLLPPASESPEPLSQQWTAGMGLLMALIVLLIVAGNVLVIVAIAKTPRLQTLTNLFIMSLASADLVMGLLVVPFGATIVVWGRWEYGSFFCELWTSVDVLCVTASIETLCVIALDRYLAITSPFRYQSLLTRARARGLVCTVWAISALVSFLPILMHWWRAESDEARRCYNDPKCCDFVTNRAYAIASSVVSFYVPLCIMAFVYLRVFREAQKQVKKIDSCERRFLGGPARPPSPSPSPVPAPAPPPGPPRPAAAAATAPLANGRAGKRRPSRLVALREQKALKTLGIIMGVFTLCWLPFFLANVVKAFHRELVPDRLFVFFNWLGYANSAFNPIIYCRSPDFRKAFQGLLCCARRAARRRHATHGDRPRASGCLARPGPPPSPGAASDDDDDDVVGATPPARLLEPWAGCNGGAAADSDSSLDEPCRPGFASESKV

Experiments:
human α2A‐adrenoceptor [1] = biological target: T1, human α2A‐adrenoceptor (Homo sapiens, UniProt P08913); experiment: CRE‐SPAP gene transcription in CHO‐α2A cells
human β2‐adrenoceptor [2] = biological target: T2, human β2‐adrenoceptor (Homo sapiens, UniProt P07550); experiment: CRE-SPAP production in CHO-β2 cells
human α2A‐adrenoceptor [3] = biological target: T1, human α2A‐adrenoceptor; experiment: 3H‐rauwolscine whole cell binding in CHO‐α2A cells
human α2B‐adrenoceptor [4] = biological target: T3, human α2B‐adrenoceptor (Homo sapiens, UniProt P18089); experiment: 3H‐rauwolscine whole cell binding in CHO‐α2B cells
human β1‐adrenoceptor [5] = biological target: T4, human β1‐adrenoceptor (Homo sapiens, UniProt P08588); experiment: 3H-CGP12177 whole cell binding in CHO-β1 cells; details: log of top concentration used; KD not calculable
human α2B‐adrenoceptor [6] = biological target: T3, human α2B‐adrenoceptor; experiment: CRE‐SPAP gene transcription in CHO‐α2B cells
human β2‐adrenoceptor [7] = biological target: T2, human β2‐adrenoceptor; experiment: 3H-CGP12177 whole cell binding in CHO-β2 cells; details: log of top concentration used; KD not calculable
human β1‐adrenoceptor [8] = biological target: T4, human β1‐adrenoceptor; experiment: CRE-SPAP production in CHO-β1 cells
[9] = with 3 µM forskolin (inhibitory response)
[10] = fold, from KD values, 1 = no selectivity

Cc1sc(C)c2c1CCC=C2c1cnc[nH]1.O=C(O)/C=C\C(=O)O [T‐CG 1000]
Log EC50 (Gs), CRE‐SPAP (without forskolin) (human α2A‐adrenoceptor [1]; CHO‐α2A (cell line 1), absence of forskolin): No response | Log IC50 (Gi), CRE‐SPAP (with forskolin) (human α2A‐adrenoceptor [1]; CHO‐α2A (cell line 1, 5830 fmol/mg protein), 3 μM forskolin): No response | Log EC50 (human β2‐adrenoceptor [2]; no forskolin, log values): No resp | Log IC50 (human β2‐adrenoceptor [2]; [9]): No resp | Log KD, CHO‐α2A (human α2A‐adrenoceptor [3]; 3H‐rauwolscine whole cell binding, living cells, negative log KD, mean ± SEM): −7.08 ± 0.03 | Log KD (binding) (human α2A‐adrenoceptor [3]; CHO‐α2A, 3H‐rauwolscine whole cell binding, given as negative log KD): −7.08 | Selectivity ratio α2A vs α2B (higher affinity for α2A) (human α2A‐adrenoceptor [3]; [10]): 11.7 | Selectivity ratio α2A vs α2C (higher affinity for α2A) (human α2A‐adrenoceptor [3]; [10]): 2.1 | Log KD (binding) (human α2B‐adrenoceptor [4]; CHO‐α2B, given as negative log KD): −6.01 | Log KD, CHO‐α2B (human α2B‐adrenoceptor [4]; living cells, negative log KD, mean ± SEM): −6.01 ± 0.03 | IC50 (log), 3H-CGP12177 whole cell binding CHO-β1 (human β1‐adrenoceptor [5]): IC50>-4 | Log IC50 (Gi), CRE‐SPAP (with forskolin) (human α2B‐adrenoceptor [6]; 3 μM forskolin): −7.78 ± 0.08 | Log EC50 (Gs), CRE‐SPAP (with forskolin) (human α2B‐adrenoceptor [6]; 3 μM forskolin, stimulatory part of biphasic response): −6.89 ± 0.05 | Log EC50 (Gs), CRE‐SPAP (without forskolin) (human α2B‐adrenoceptor [6]; absence of forskolin): −6.46 ± 0.05 | Log efficacy ratio (KD/IC50) (human α2B‐adrenoceptor [6]; binding KD / Gi IC50 of CRE‐SPAP): 1.77 | % 3 μM forskolin, CRE‐SPAP (without forskolin) (human α2B‐adrenoceptor [6]; maximum response compared to 3 μM forskolin): 115.6 ± 8.6% | IC50 (log), 3H-CGP12177 whole cell binding CHO-β2 (human β2‐adrenoceptor [7]): IC50>-4 | Log EC50 (human β1‐adrenoceptor [8]; no forskolin, log values): No resp | Log IC50 (human β1‐adrenoceptor [8]; [9]): No resp

The match of structure and compound is tentative.
